Results are given in words; binding and its absence hold for the method and conditions named. Some results given as binding are weak or reduced against the parent protein; the word gives no strength.
Biological target: Human IL-23R-Fc (human) (UniProt Q5VWK5)
Assay: biosensor sensorgram (response in nm, Separate Fit, Model 1:1): human IL-23R-Fc captured on the biosensor surface, 10 nM human IL-23 injected

By UniProt entry, the sequences of proteins in these tests, tags left out. Where a name states a change or a piece, a line headed by the entry shows the natural chain unless it says otherwise. Residues count along the entry.
UniProt Q5VWK5, residues 24-353: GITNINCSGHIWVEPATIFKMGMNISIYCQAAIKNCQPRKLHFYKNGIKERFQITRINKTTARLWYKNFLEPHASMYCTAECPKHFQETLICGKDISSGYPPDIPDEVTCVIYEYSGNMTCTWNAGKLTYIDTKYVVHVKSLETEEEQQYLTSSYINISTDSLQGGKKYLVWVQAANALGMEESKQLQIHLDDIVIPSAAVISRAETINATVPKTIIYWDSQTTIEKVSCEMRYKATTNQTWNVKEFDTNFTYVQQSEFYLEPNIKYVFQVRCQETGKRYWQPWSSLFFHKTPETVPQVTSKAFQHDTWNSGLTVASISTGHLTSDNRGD
UniProt P29460: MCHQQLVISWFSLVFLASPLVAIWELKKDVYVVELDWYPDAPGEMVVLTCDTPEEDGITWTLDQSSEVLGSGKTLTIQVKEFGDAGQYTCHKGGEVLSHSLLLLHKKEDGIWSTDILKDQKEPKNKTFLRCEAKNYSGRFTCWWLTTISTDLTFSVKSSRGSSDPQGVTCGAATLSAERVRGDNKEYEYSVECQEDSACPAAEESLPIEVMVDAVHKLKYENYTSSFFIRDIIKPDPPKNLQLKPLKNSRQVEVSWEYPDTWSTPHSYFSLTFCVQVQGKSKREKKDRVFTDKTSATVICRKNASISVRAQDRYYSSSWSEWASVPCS

binding: binds
Substance: recombinant human IL-23 (from UniProt P29460 23-328) (ligand)

Source: patent US20210317201A1
